Source: patent publication US8071535B2 (The Regents of the University of California, priority 2003, dated 2011)

Experiments:
[1] = general procedure: Fmoc solid-phase peptide synthesis; Fmoc PAL PEG PS resin; details: whole synthesis, scale 0.15 mmole, TFA salt
[2] = general procedure: Fmoc solid-phase peptide synthesis; Fmoc PAL PEG PS resin (PerSeptive Biosystems); details: conjugation step, 1H NMR, trifluoroacetic acid salt (peptide); hydrochloride (conjugate)

Row | Substance | isolated mass [1] | isolated yield [1] | final purity (method not given) [2]
1 | ace-CRRRRRRRRR-am trifluoroacetic acid | 40 mg | 10% | –
2 | BODIPY-Cys(Arg)9 hydrochloride (CRRRRRRRRR; N-acetyl, C-amide, BODIPY on Cys) | – | – | better than 95%
